From US12162865B2, “Methods of treating cancer” (Epizyme, Inc., priority 2012, dated 2024)
Read-outs that look alike come from different tables or passages of the source.

What was measured:
H3K27Me3 in A204 cells = test: cells; details: Homo sapiens, A204, 96 h, read-out: Methylation IC50
A204 cells = test: cells; details: Homo sapiens
[1] = system: H3K27Me3 in Karpas-422 cells; test: cells; details: Homo sapiens, KARPAS-422, 96 h, read-out: Methylation IC50
H3K27Me3 in RD cells = test: cells; details: Homo sapiens, 96 h, read-out: Methylation IC50
H3K27Me3 in G402 cells = test: cells; details: Homo sapiens, G-402, 96 h, read-out: Methylation IC50
[2] = system: H3K27Me3 in SU-DHL-6 cells; test: cells; details: Homo sapiens, SU-DHL-6, 96 h, read-out: Methylation IC50
SJCRH30 cells [3] = test: cells
KYM-1 cells = test: cells; details: 336 h, read-out: Proliferation IC50 on Day 14
H3K27Me3 in G401 cells = test: cells; details: Homo sapiens, G-401, 96 h, read-out: Methylation IC50
SJCRH30 cells [4] = details: read-out: Proliferation IC50 on Day 14; SJCRH30, SMARCB1 wild-type; Table 6; two single experiments, mean not possible
[5] = system: H3K27Me3 in SJCRH30 cells; test: cells; details: 96 h, read-out: Methylation IC50
G402 cells = test: cells; details: Homo sapiens, G-402, 336 h, read-out: Proliferation IC50 on Day 14
Toledo cells = test: cells; details: Homo sapiens, 264 h, read-out: Proliferation IC50
G401 cells = test: cells; details: Homo sapiens
Karpas-422 cells = test: cells; details: Homo sapiens, KARPAS-422, 264 h, read-out: Proliferation IC50
293 cells = test: cells; details: Homo sapiens, HEK293, 336 h, read-out: Proliferation IC50 on Day 14
H3K27Me3 in RL cells = test: cells; details: Homo sapiens, 96 h, read-out: Methylation IC50
RD cells = test: cells; details: Homo sapiens
OCI-LY19 cells = test: cells; details: Homo sapiens, OCI-LY19, 264 h, read-out: Proliferation IC50
H3K27Me3 in 293 cells = test: cells; details: Homo sapiens, HEK293, 96 h, read-out: Methylation IC50
DOHH-2 cells = test: cells; details: Homo sapiens, DOHH-2, 264 h, read-out: Proliferation IC50
SU-DHL-6 cells = test: cells; details: Homo sapiens, SU-DHL-6, 264 h, read-out: Proliferation IC50
H3K27Me3 in KYM-1 cells = test: cells; details: 96 h, read-out: Methylation IC50
Pfeiffer cells = test: cells; details: Homo sapiens, 264 h, read-out: Proliferation IC50
Farage cells = test: cells; details: Homo sapiens, 264 h, read-out: Proliferation IC50

With CCN(c1cc(-c2ccc(CN3CCOCC3)cc2)cc(C(=O)NCc2c(C)cc(C)[nH]c2=O)c1C)C1CCOCC1 [Compound A, N-((4,6-dimethyl-2-oxo-1,2-dihydropyridin-3-yl)methyl)-5-(ethyl (tetrahydro-2H-pyran-4-yl)amino)-4-methyl-4′-(morpholinomethyl)-[1,1′-biphenyl]-3-carboxamide] the IC50 (H3K27Me3 in A204 cells) was 1.4 nM, the IC50 (A204 cells; A204, 168 h, read-out: Proliferation IC50, day 7) was 3200 nM and the IC50 (A204 cells; A204, 336 h, read-out: Proliferation IC50, day 14) was 140 nM. The IC50 (A204 cells; A204, 336 h, read-out: Proliferation IC50 on Day 14) was 590 nM, the IC50 [1] was 90 nM and the IC50 (H3K27Me3 in RD cells) was 5.6 nM. It also gave an IC50 (H3K27Me3 in G402 cells) of 1.7 nM, an IC50 [2] of 20 nM and an IC50 (SJCRH30 cells [3]; 168 h, read-out: Proliferation IC50, day 7, SJCRH30, SMARCB1 Wild Type, Table 3) of 6100 nM. For the same molecule, the IC50 (SJCRH30 cells [3]; 336 h, read-out: Proliferation IC50, day 14, SJCRH30, SMARCB1 Wild Type, Table 3) was 8800 nM, the IC50 (SJCRH30 cells [3]; 336 h, read-out: Proliferation IC50 on Day 14, SJCRH30, SMARCB1 wild-type, Table 6, two single experiments, mean not possible) was 5100 nM and the IC50 (KYM-1 cells) was 32 nM. For the same molecule, the IC50 (H3K27Me3 in G401 cells) was 2.7 nM, the IC50 (SJCRH30 cells [4]) was over 10000 nM and the IC50 [5] was 4.9 nM. For the same molecule, the IC50 (G402 cells) was 144 nM, the IC50 (Toledo cells) was 7600 nM and the IC50 (G401 cells; G-401, 168 h, read-out: Proliferation IC50, day 7) was 87 nM. For the same molecule, the IC50 (G401 cells; G-401, 336 h, read-out: Proliferation IC50, day 14) was 42 nM, the IC50 (G401 cells; G-401, 336 h, read-out: Proliferation IC50 on Day 14) was 135 nM and the IC50 (Karpas-422 cells) was 1.8 nM. For the same molecule, the IC50 (293 cells) was over 10000 nM, the IC50 (H3K27Me3 in RL cells) was 22 nM and the IC50 (RD cells; 168 h, read-out: Proliferation IC50, day 7) was 9200 nM. It also gave an IC50 (RD cells; 336 h, read-out: Proliferation IC50, day 14) of 5200 nM, an IC50 (OCI-LY19 cells) of 6200 nM and an IC50 (H3K27Me3 in 293 cells) of 2.4 nM. For the same molecule, the IC50 (DOHH-2 cells) was 1700 nM, the IC50 (SU-DHL-6 cells) was 4.7 nM and the IC50 (H3K27Me3 in KYM-1 cells) was 4.3 nM. For the same molecule, the IC50 (Pfeiffer cells) was 0.49 nM and the IC50 (Farage cells) was 99 nM.
